Values from PubChem BioAssay AID1259254 (NCATS, 2017)

- Purpose: 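Genome-wide screen for genes that prevent DNA re-replication in cancer cells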 (primary screen)
- Cells: human HCT116 colorectal cancer cells
- Reagent: single siRNA against human genes
- Timing: 3 days
- Measurement: 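Imaged Hoechst DNA stain sorts each cell into a cycle phase by DNA amount; per plate, G2 fraction set to 0% for non-targeting and 100% for GMNN siRNA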
- Scale: G2 robust z-score and G2 cells, % of GMNN control: higher = more G2 cells, more excess DNA replication; raw share of cells in G2: higher = larger share of cells with G2 DNA content
- Hit rule: 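An siRNA counts as active if its G2 robust z-score lies at least 5 MADs above the screen median; here such calls match roughly 38% of GMNN control or more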
Here is a random part of about 59,000 reagents tested. About 1,550 of them (2.6%) count as active. 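G2 share is only a proxy for re-replication; each gene was hit by three separate siRNAs, and active genes were retested.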 Raw values are not corrected between plates. Reagents against one gene are numbered here. Not stated in the record: the amount of reagent.

gene | reagent no. | G2 robust z-score | G2 cells, % of GMNN control | raw share of cells in G2 (%) | call
SLC43A3 | 1 | 1.02 | 10.1 | 7.3 | inactive
SLC43A3 | 2 | 1.17 | 11.2 | 11.2 | inactive
SLC43A3 | 3 | 8.84 | 65.2 | 25.8 | active
HSPA5 | 1 | -0.439 | -0.123 | 3.41 | inactive
HSPA5 | 2 | 1.23 | 11.6 | 10.3 | inactive
HSPA5 | 3 | 1.86 | 16.1 | 8.95 | inactive
UBN2 | 1 | 1.58 | 14.1 | 8.69 | inactive
UBN2 | 2 | 0.601 | 7.19 | 5.59 | inactive
UBN2 | 3 | 1.65 | 14.6 | 7.84 | inactive
HENMT1 | 1 | 0.68 | 7.75 | 7.2 | inactive
HENMT1 | 2 | -0.31 | 0.79 | 3.57 | inactive
HENMT1 | 3 | -0.838 | -2.93 | 0.964 | inactive
EBF1 | 1 | -1.23 | -5.68 | 2.64 | inactive
EBF1 | 2 | -0.0579 | 2.56 | 5.03 | inactive
EBF1 | 3 | 0.687 | 7.8 | 6.58 | inactive
AGAP1 | 1 | 0.909 | 9.36 | 7.84 | inactive
AGAP1 | 2 | -0.312 | 0.773 | 3.56 | inactive
AGAP1 | 3 | -0.338 | 0.588 | 1.99 | inactive
DTHD1 | 1 | 0.189 | 4.29 | 5.37 | inactive
DTHD1 | 2 | 0.875 | 9.12 | 7.14 | inactive
DTHD1 | 3 | -0.78 | -2.52 | 3.75 | inactive
LHFPL2 | 1 | 1.18 | 11.3 | 10.4 | inactive
LHFPL2 | 2 | 0.588 | 7.11 | 6.91 | inactive
LHFPL2 | 3 | 0.131 | 3.89 | 4.82 | inactive
RAB29 | 1 | -0.836 | -2.92 | 4.24 | inactive
RAB29 | 2 | 1.37 | 12.6 | 10.3 | inactive
RAB29 | 3 | -0.584 | -1.14 | 4.3 | inactive
TMEM63A | 1 | -0.182 | 1.69 | 6.09 | inactive
TMEM63A | 2 | 0.344 | 5.39 | 6.19 | inactive
TMEM63A | 3 | -0.339 | 0.579 | 3.62 | inactive

Reformatted: 5 of the entries above.
{"gene": "SLC43A3", "reagent no.": 2, "G2 robust z-score": 1.17, "G2 cells, % of GMNN control": 11.2, "raw share of cells in G2 (%)": 11.2, "call": "inactive"}
{"gene": "SLC43A3", "reagent no.": 3, "G2 robust z-score": 8.84, "G2 cells, % of GMNN control": 65.2, "raw share of cells in G2 (%)": 25.8, "call": "active"}
{"gene": "HSPA5", "reagent no.": 1, "G2 robust z-score": -0.439, "G2 cells, % of GMNN control": -0.123, "raw share of cells in G2 (%)": 3.41, "call": "inactive"}
{"gene": "HSPA5", "reagent no.": 2, "G2 robust z-score": 1.23, "G2 cells, % of GMNN control": 11.6, "raw share of cells in G2 (%)": 10.3, "call": "inactive"}
{"gene": "HSPA5", "reagent no.": 3, "G2 robust z-score": 1.86, "G2 cells, % of GMNN control": 16.1, "raw share of cells in G2 (%)": 8.95, "call": "inactive"}
